Here are results for 30 sequences from paper PMC7862700.

Chains of the proteins cited; added tags and fusions are not shown. Lines headed by an entry give the natural chain unless they say otherwise; changes in a name come on top.
UniProt Q01892: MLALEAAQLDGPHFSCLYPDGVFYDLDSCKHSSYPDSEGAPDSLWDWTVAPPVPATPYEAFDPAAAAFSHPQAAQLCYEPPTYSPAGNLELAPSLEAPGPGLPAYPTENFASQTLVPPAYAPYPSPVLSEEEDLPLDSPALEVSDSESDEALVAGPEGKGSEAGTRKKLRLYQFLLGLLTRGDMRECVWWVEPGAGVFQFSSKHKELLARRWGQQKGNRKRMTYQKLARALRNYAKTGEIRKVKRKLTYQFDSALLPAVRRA
UniProt P41161: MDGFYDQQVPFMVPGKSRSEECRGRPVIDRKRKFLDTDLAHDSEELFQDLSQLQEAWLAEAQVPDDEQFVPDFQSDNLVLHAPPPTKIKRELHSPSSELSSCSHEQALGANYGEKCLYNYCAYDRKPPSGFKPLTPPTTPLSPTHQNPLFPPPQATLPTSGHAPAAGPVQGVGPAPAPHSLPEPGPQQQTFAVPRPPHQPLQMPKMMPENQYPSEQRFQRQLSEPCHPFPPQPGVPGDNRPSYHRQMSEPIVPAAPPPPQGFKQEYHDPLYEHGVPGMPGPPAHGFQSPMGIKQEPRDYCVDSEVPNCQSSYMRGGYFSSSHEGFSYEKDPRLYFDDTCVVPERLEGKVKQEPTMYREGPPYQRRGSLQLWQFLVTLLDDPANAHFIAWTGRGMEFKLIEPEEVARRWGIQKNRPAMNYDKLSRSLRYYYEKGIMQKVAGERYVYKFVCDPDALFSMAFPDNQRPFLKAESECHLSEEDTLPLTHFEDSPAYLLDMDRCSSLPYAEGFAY
UniProt Q99607: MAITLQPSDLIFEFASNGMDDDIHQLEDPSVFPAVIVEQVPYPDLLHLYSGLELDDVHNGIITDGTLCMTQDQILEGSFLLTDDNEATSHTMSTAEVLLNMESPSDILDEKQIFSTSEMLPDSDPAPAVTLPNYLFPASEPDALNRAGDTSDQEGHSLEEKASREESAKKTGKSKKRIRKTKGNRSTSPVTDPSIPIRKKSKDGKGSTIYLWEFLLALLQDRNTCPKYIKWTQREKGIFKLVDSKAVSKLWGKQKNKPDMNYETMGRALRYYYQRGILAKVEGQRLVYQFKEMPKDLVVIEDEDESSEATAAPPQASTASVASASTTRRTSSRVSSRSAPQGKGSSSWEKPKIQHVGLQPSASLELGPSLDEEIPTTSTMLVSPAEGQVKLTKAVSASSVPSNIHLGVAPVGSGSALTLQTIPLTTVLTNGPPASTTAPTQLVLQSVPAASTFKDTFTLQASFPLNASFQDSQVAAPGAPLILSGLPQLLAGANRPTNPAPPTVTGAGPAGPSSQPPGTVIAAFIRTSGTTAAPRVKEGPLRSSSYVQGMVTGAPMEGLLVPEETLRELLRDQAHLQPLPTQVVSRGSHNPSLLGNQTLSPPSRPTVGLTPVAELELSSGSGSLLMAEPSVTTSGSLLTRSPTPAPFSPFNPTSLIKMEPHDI

Some targets named below: SPIB (UniProt Q01892); ETV5 (UniProt P41161); ELF4 (UniProt Q99607).
What all share (assay): DAPPL (digital affinity profiling via proximity ligation, sequencing)
What all share (conditions): 10 mM Tris-HCl pH 7.5, 50 mM NaCl, 1 mM DTT, 4% glycerol, room temperature, 30 min; GST-TFs on glutathione beads, 16-mer random dsDNA library, 0.1% …; high values mean tight binding; double strand, one strand shown; scale: fold enrichment (6-mer frequency, TF over GST control)

For the next test, the target named is T1, FLI1 (UniProt Q01543).
T1 sequence: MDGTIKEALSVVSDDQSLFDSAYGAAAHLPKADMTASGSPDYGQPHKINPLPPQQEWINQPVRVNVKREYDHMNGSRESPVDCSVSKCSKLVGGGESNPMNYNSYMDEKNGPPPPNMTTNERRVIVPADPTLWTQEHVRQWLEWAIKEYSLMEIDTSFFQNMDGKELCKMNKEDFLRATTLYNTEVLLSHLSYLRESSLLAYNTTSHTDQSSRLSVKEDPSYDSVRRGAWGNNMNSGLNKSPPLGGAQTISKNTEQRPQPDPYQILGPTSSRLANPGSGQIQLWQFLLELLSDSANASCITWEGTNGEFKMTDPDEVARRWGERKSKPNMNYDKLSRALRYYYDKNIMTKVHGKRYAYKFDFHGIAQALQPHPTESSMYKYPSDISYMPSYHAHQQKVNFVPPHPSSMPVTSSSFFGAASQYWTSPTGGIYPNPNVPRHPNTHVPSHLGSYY

The target in a further test is T2, EHF (UniProt Q9NZC4).
T2 sequence: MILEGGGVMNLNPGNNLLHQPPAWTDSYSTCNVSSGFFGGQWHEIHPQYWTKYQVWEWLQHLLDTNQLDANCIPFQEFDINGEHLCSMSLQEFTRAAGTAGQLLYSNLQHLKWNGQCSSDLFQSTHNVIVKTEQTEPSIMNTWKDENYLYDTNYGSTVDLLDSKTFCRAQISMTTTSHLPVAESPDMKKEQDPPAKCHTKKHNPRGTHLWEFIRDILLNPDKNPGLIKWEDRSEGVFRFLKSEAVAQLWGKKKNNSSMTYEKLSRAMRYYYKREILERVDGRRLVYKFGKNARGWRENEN

The target in the next test is T3, ETV2 (UniProt O00321).
T3 sequence: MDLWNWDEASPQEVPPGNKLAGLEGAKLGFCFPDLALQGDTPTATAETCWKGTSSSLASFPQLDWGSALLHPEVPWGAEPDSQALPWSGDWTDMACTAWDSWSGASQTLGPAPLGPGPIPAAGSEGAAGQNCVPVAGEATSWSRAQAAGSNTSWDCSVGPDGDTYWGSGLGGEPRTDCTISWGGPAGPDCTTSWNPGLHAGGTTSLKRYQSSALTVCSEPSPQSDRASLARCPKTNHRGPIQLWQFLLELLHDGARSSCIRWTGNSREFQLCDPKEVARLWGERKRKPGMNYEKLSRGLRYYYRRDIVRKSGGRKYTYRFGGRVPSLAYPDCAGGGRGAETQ

The target in another test is T4, ETV3L (UniProt Q6ZN32).
T4 sequence: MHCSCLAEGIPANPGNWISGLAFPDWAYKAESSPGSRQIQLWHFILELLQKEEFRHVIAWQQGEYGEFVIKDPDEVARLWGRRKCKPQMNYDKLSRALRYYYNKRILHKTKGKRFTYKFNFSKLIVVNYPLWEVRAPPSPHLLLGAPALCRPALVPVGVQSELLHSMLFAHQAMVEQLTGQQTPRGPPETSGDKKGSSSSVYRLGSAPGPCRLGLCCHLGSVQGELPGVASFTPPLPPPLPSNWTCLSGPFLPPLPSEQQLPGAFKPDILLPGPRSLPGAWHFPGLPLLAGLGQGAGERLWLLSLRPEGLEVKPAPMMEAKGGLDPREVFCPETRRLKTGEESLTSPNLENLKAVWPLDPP

The entries are a selection whose mix differs from that of the whole data set. At the low end of the ranking the order means little.

For ACCAGC, the binding signal with FLI1 amounted to 0.833; with EHF, 0.838; with SPIB, 0.86; in the test with ETV5, 0.875; with ELF4, 0.817; with ETV2, 0.866. Besides, the binding signal in the test with ETV3L came to 0.936.

Turning to GCATGG, the binding signal in the test with FLI1 was determined as 0.85; with EHF, 0.885; with SPIB it was 0.759; with ETV5, 0.88; with ELF4, 0.908; with ETV2, 0.803. The binding signal with ETV3L was found to be 0.987.

For the sequence GTCAGT, the binding signal in the test with FLI1 turned out to be 0.638; with EHF it was 0.582; with SPIB, 0.582; with ETV5, 0.598; in the test with ELF4, 0.612; in the test with ETV2 it was 0.584. For the same sequence, the binding signal with ETV3L is 0.595.

As for ACAGGC, the binding signal with FLI1 is 0.705; with EHF, 0.742; in the test with SPIB it was 0.66; in the test with ETV5, 0.676; with ELF4 it was 0.669; with ETV2 it was 0.622. In the test with ETV3L, this sequence registered a binding signal of 0.751.

As to GTAGTA, the binding signal with FLI1 turned out to be 0.912; with EHF it was 0.927; in the test with SPIB, 0.934; with ETV5, 0.937; with ELF4 it was 0.98; with ETV2, 0.713. In the test with ETV3L, this sequence registered a binding signal of 0.908.

With GGTCAA, the binding signal in the test with FLI1 came out at 0.87; with EHF it was 0.905; with SPIB, 0.922; with ETV5 it was 0.871; in the test with ELF4, 0.91; with ETV2 it was 0.877. Besides, the binding signal with ETV3L came to 0.972.

For the sequence GACGAT, the binding signal is 0.916 in the test with FLI1; 0.932 with EHF; 0.986 with SPIB; 0.872 with ETV5; 0.92 in the test with ELF4; 0.826 with ETV2. The binding signal with ETV3L is 0.882.

As to GGTGGC, the binding signal in the test with FLI1 came to 0.847; with EHF, 0.755; in the test with SPIB, 0.822; in the test with ETV5 it was 0.724; with ELF4, 0.684; with ETV2 it was 0.688. The binding signal with ETV3L came to 0.754.

Regarding GGGACG, the binding signal with FLI1 is 0.514; with EHF it was 0.477; with SPIB it was 0.512; in the test with ETV5, 0.481; with ELF4 it was 0.462; with ETV2, 0.476. In the test with ETV3L, the binding signal amounted to 0.415.

Turning to GAACGA, the binding signal was 0.787 with FLI1; 0.741 with EHF; 0.773 with SPIB; 0.794 in the test with ETV5; 0.726 with ELF4; 0.732 in the test with ETV2. This sequence also came in with a binding signal with ETV3L of 0.766.

Take TGGGGC: the binding signal with FLI1 was 0.801; with EHF it was 0.89; with SPIB, 0.777; in the test with ETV5 it was 0.757; in the test with ELF4, 0.85; with ETV2, 0.744. The sequence further showed a binding signal in the test with ETV3L of 0.841.

As for GCAGTA, the binding signal with FLI1 was found to be 0.933; with EHF, 0.916; with SPIB it was 0.777; in the test with ETV5, 0.825; in the test with ELF4 it was 0.837; with ETV2 it was 0.965. This sequence also came in with a binding signal with ETV3L of 0.938.

In the case of GGCACG, the binding signal with FLI1 came out at 0.845; with EHF, 0.828; with SPIB it was 0.915; with ETV5, 0.92; with ELF4 it was 0.874; with ETV2, 0.832. Moreover, the binding signal with ETV3L amounted to 0.869.

As for CGGAAT, the binding signal came to 0.847 in the test with FLI1; 0.976 in the test with EHF; 0.973 with SPIB; 0.977 with ETV5; 0.867 in the test with ELF4; 0.928 with ETV2. The binding signal with ETV3L came to 0.875.

With GGGCCC, the binding signal with FLI1 was determined as 0.796; in the test with EHF it was 0.775; with SPIB, 0.862; with ETV5, 0.808; with ELF4, 0.832; with ETV2, 0.866. Moreover, in the test with ETV3L, the binding signal came to 0.76.

In the case of GTTAGA, the binding signal was found to be 0.786 with FLI1; 0.777 with EHF; 0.736 in the test with SPIB; 0.743 in the test with ETV5; 0.77 in the test with ELF4; 0.83 with ETV2. The sequence also yielded a binding signal with ETV3L of 0.799.

Turning to GAGGGT, the binding signal with FLI1 came out at 0.549; in the test with EHF, 0.536; with SPIB, 0.608; with ETV5, 0.584; with ELF4, 0.529; with ETV2 it was 0.545. This sequence returned a binding signal in the test with ETV3L of 0.58.

As for GAGAGT, the binding signal in the test with FLI1 was determined as 0.359; in the test with EHF, 0.369; in the test with SPIB, 0.327; with ETV5, 0.377; with ELF4, 0.361; with ETV2, 0.384. In the test with ETV3L, the binding signal was 0.355.

For GCGCTG, the binding signal with FLI1 worked out at 0.907; with EHF, 0.839; in the test with SPIB, 0.919; with ETV5, 0.924; with ELF4, 0.783; in the test with ETV2, 0.91. For the same sequence, the binding signal in the test with ETV3L stood at 0.829.

Regarding TGAGCA, the binding signal in the test with FLI1 worked out at 0.8; with EHF, 0.903; with SPIB it was 0.864; with ETV5 it was 0.778; with ELF4, 0.853; with ETV2 it was 0.932. In the test with ETV3L, the binding signal was found to be 0.94.

For the sequence CGCGTG, the binding signal was found to be 0.662 in the test with FLI1; 0.63 with EHF; 0.708 with SPIB; 0.628 in the test with ETV5; 0.654 with ELF4; 0.694 with ETV2. Besides, the binding signal in the test with ETV3L came to 0.667.

In the case of TCGTGT, the binding signal was 0.809 with FLI1; 0.722 with EHF; 0.776 with SPIB; 0.753 in the test with ETV5; 0.708 with ELF4; 0.696 in the test with ETV2. This sequence came in with a binding signal with ETV3L of 0.878.

For GGGTAC, the binding signal turned out to be 0.869 in the test with FLI1; 0.864 with EHF; 0.922 with SPIB; 0.866 with ETV5; 0.899 with ELF4; 0.74 with ETV2. Further, in the test with ETV3L, the binding signal stood at 0.893.

GAGAGG: the binding signal was found to be 0.495 in the test with FLI1; 0.527 with EHF; 0.524 with SPIB; 0.535 with ETV5; 0.503 in the test with ELF4; 0.447 in the test with ETV2. In addition, in the test with ETV3L, the binding signal was found to be 0.478.

Take ACCATG: the binding signal was determined as 0.85 with FLI1; 0.922 with EHF; 0.844 with SPIB; 0.865 with ETV5; 0.846 with ELF4; 0.935 in the test with ETV2. This sequence displayed a binding signal with ETV3L of 0.896.

Turning to GGTGAC, the binding signal came out at 0.857 with FLI1; 0.823 in the test with EHF; 0.703 in the test with SPIB; 0.849 in the test with ETV5; 0.784 in the test with ELF4; 0.675 in the test with ETV2. The sequence further displayed a binding signal with ETV3L of 0.759.

On to CAGTAG, for which the binding signal in the test with FLI1 is 0.643; in the test with EHF, 0.657; in the test with SPIB, 0.569; in the test with ETV5 it was 0.564; in the test with ELF4 it was 0.568; with ETV2 it was 0.638. In the test with ETV3L, this sequence displayed a binding signal of 0.636.

Regarding GACTGG, the binding signal in the test with FLI1 came out at 0.656; with EHF, 0.682; with SPIB, 0.665; with ETV5, 0.623; with ELF4, 0.658; in the test with ETV2, 0.678. In addition, in the test with ETV3L, the binding signal is 0.662.

In the case of GAGCCA, the binding signal with FLI1 was 0.599; with EHF it was 0.66; with SPIB it was 0.554; with ETV5 it was 0.573; with ELF4, 0.645; with ETV2, 0.658. The sequence further registered a binding signal with ETV3L of 0.584.

On to GACACA, for which the binding signal in the test with FLI1 is 0.963; with EHF, 0.907; with SPIB, 0.873; with ETV5, 0.872; in the test with ELF4 it was 0.902; in the test with ETV2 it was 0.866. In the test with ETV3L, this sequence showed a binding signal of 0.956.
